The values below come from article PMC11600210.

No constants are given. Whether binding was seen depends on the method and setting. In cells and extracts the contact can be indirect. Some entries that bind do so weakly or less than the wild type. For some of these results: Where a sequence is shown, tags or fusion partners need not be part of it.

The target in one assay is T1, SEC31a‐FLAG (UniProt O94979).
T1 sequence: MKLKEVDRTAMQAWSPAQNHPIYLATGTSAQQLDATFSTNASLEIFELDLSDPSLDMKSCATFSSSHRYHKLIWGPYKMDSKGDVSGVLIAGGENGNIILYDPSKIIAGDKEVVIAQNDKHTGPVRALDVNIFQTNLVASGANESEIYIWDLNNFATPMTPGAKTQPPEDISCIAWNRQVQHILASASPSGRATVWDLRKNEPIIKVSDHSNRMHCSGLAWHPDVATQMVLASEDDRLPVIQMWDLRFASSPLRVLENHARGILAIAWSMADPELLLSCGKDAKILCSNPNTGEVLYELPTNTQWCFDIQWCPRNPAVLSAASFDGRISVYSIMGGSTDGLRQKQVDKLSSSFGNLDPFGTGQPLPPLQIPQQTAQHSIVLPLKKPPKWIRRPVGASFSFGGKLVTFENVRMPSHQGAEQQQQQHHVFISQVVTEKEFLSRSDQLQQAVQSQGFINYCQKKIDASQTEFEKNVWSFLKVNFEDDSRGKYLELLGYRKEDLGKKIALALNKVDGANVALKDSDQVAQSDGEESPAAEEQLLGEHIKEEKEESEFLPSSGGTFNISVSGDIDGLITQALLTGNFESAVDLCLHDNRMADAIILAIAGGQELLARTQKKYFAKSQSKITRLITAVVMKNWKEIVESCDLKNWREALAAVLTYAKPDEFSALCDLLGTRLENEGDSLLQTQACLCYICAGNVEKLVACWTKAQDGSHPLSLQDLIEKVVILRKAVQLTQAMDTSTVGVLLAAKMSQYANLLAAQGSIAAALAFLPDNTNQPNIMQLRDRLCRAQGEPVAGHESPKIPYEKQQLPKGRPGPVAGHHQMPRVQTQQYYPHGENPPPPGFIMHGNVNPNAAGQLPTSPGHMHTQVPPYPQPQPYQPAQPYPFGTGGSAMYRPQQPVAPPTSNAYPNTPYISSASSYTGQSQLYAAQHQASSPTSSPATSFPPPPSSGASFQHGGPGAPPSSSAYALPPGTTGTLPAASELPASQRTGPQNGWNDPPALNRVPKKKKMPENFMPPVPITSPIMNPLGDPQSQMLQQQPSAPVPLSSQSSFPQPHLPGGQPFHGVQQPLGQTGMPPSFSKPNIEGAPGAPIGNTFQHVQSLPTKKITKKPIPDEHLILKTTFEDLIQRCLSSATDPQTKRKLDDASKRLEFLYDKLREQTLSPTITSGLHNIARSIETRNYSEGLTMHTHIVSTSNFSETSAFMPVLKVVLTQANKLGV
Put plainly: co-IP; FLAG-tagged SEC31a and HA-tagged ATG9a in transfected cells, NP-40 lysate, immunoprecipitated with anti-FLAG or anti-HA on magnetic beads, western blot.

For assay [1], the target named is T2, ATG9a (human (endogenous in BMSCs)) (UniProt Q7Z3C6).
T2 sequence: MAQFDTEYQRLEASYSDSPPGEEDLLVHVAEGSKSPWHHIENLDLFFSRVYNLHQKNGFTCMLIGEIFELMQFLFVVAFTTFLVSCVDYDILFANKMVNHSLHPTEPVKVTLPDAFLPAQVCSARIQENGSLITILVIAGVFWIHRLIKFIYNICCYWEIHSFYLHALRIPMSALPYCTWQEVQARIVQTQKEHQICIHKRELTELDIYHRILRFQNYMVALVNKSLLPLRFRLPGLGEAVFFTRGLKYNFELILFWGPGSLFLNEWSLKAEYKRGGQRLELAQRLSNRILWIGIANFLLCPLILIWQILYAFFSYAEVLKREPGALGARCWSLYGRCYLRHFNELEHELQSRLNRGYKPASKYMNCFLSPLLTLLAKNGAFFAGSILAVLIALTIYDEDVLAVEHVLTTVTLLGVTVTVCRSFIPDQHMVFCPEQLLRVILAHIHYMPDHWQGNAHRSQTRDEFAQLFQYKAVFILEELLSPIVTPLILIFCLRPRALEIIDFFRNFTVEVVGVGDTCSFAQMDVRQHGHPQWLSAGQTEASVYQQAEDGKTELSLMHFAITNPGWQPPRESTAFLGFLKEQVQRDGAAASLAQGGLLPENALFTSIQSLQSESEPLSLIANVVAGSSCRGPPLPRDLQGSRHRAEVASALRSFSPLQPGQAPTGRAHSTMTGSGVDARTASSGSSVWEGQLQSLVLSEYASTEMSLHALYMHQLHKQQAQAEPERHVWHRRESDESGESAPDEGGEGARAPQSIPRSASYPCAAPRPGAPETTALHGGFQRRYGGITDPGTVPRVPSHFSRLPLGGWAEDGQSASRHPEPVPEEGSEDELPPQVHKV
Description: co-IP; endogenous proteins of BMSC lysate (NP-40 lysis buffer, 0.5 mg extract) immunoprecipitated with anti-ATG9a on magnetic beads, 4 °C overnight, five washes, western blot; cells with or without osteogenic induction (ODM), or transfected with Sar1a H79G or T39N vectors.

A further assay has as its target T3, ATG9‐HA (UniProt Q7Z3C6).
T3 sequence: T2 sequence
Description: co-IP; FLAG-tagged SEC31a and HA-tagged ATG9a in transfected cells, NP-40 lysate, immunoprecipitated with anti-FLAG or anti-HA on magnetic beads, western blot. (In western blotting, separated proteins are transferred to a membrane and probed.)

The next assay concerns the target T4, mClover‐ATG9a (UniProt Q7Z3C6).
T4 sequence: T2 sequence
Description: FRET or BRET; BMSCs with or without osteogenic induction (ODM) transfected with mClover-ATG9a and mRuby-SEC31a; donor and acceptor images before and after photobleaching.

B1: ATG9‐HA (protein, UniProt Q7Z3C6 1-839)
chain: T2 sequence
For B1, the binding result in the assay with SEC31a‐FLAG is “binds”.

B2: SEC31a (protein, UniProt O94979 1-1220)
chain: T1 sequence
As to B2, the binding entry in assay [1] is “binds”.

B3: SEC31a‐FLAG (protein, UniProt O94979 1-1220)
chain: T1 sequence
In the case of B3, the binding entry with ATG9‐HA is listed as “binds”.

B4: mRuby‐SEC31a (protein, UniProt O94979 1-1220)
chain: T1 sequence
On to B4, for which the binding result with mClover‐ATG9a is “binds”.
